From PMC10907630
The exact form of at least one protein or probe is not confirmed.

Experiments:
[1] = system: PG-ptau (tau 1N4R phosphorylated by PKA and GSK-3β); assay: EMSA; details: 10 mM NaCl; EMSA: 20 nM DNA or nucleosome, 20 mM HEPES pH 7.2, 10 mM NaCl (or 150), 0.5 mM TCEP, 0.1% Tween-20, 5% sucrose, room temperature 20 min; recombinant protein; label: 5' 6-FAM on strand 1
[2] = system: PG-ptau (tau 1N4R phosphorylated by PKA and GSK-3β); assay: fluorescence anisotropy; details: 10 mM NaCl; FA: 10 nM DNA, same buffer with 10 mM NaCl, 0.01% NP-40 substitute, room temperature 10 min; recombinant protein; label: 5' 6-FAM on strand 1

“ATTTAGAAATGTCCACTGTAGG (double strand) [22 bp DNA]” showed a Kd [1] of 600 nM and a Kd [2] of 76 nM.
